Among the data in article PMC8134040 are binding values, retold here.

Sequences of proteins named here, by UniProt entry; tags and fusion partners are left off. Residues count along the entry.
UniProt P29317, residues 24-976: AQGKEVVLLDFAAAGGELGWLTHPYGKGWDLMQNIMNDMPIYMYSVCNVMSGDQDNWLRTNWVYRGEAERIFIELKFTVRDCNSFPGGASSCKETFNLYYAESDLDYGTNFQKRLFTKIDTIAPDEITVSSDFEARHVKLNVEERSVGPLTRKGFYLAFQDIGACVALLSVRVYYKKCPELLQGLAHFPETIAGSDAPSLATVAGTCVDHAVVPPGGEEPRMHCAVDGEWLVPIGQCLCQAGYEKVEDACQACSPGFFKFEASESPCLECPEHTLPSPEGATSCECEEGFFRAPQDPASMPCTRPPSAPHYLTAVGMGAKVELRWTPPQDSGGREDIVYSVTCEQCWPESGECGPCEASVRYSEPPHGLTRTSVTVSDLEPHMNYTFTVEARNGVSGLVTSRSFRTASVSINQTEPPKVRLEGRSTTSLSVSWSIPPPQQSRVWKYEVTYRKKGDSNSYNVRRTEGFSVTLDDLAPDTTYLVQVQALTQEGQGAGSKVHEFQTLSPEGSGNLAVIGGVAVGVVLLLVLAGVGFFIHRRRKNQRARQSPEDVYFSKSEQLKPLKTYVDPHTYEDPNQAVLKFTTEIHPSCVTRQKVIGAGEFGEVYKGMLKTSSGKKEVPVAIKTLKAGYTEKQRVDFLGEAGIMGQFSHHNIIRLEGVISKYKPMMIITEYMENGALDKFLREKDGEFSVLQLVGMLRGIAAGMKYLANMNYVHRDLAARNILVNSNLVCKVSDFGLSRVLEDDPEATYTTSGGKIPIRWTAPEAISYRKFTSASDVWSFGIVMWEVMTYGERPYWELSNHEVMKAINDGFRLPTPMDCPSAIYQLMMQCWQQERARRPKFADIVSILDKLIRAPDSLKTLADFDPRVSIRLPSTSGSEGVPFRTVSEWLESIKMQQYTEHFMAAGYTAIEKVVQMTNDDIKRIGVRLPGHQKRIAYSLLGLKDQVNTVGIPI
UniProt P07947: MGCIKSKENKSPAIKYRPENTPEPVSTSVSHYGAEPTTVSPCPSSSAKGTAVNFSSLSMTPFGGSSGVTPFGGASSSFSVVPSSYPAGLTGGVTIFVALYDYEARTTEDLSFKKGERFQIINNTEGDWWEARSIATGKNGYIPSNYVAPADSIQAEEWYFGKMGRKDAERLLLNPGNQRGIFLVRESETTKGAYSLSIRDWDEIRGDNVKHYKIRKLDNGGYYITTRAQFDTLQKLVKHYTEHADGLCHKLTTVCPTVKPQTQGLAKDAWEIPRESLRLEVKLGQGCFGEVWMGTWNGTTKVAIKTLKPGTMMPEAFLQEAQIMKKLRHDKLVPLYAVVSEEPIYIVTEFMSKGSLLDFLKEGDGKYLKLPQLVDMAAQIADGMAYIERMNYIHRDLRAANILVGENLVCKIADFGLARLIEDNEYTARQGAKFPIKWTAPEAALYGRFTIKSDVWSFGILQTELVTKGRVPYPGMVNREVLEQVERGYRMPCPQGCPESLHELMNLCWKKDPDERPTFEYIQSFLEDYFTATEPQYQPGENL

These are yes or no findings as the source states them, for the method shown. Binding seen in cells or lysates may run through a third protein. These calls come from enrichment with a bait or labelling near it, and not all partners need be listed.

For this experiment, the target named is HA-EphA2 (erythropoietin-producing hepatocellular receptor A2) (UniProt P29317). The experiment can be described thus: affinity purification with mass spectrometry; AGS cells transfected with control or HA-EphA2 plasmid for 48 h; IP with anti-HA antibody; the HA-EphA2-IP protein complex subjected to proteomic analysis.

As to “endogenous YES1 (YES Proto-Oncogene 1) (from UniProt P07947 1-543) (enzyme)”, the binding entry was “binds”.
